{"source": "PubChem BioAssay AID1259405, NCATS | 2018", "aim": "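Mouse-designed siRNAs used to find CHO productivity engineering targets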 (primary screen)", "system": "Chinese hamster CHO-K1 ovary cells with stable secreted eGFP expression", "reagents": "single siRNA against mouse genes, 0.8 pmol siRNA per well (2 µl of 400 nM stock)", "duration": "3 days", "measured": "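Per-well intracellular GFP measured by laser scanning cytometry, plus viability from ATP luminescence, each relative to plate median of non-targeting control wells, in %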", "scale": "GFP, % of control: higher = more GFP per well, higher productivity; viability (ATP), % of control: higher = more viable cells (more ATP)", "hit rule": "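Called active when intracellular GFP, relative to negative control, is at or above 120%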", "note": "The whole screen tested about 50,000 reagents; shown is an unselected part. About 4,000 of them (8%) were called active. 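Mouse siRNA library applied to hamster cells; one well for each siRNA.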 A number with no mark means an inactive call. No sequences are given here."}
{"gene knocked down": "Ptges3", "PubChem SID": "SID363556442", "GFP, % of control": 70, "viability (ATP), % of control": 79.8}
{"gene knocked down": "Ptges3", "PubChem SID": "SID363586892", "GFP, % of control": 80.3, "viability (ATP), % of control": 127}
{"gene knocked down": "Ptges3", "PubChem SID": "SID363589000", "GFP, % of control": 108, "viability (ATP), % of control": 128}
{"gene knocked down": "AW551984", "PubChem SID": "SID363546613", "GFP, % of control": 21, "viability (ATP), % of control": 27.7}
{"gene knocked down": "AW551984", "PubChem SID": "SID363548369", "GFP, % of control": 68.1, "viability (ATP), % of control": 72.2}
{"gene knocked down": "AW551984", "PubChem SID": "SID363560547", "GFP, % of control": 112, "viability (ATP), % of control": 137}
{"gene knocked down": "Pcdhga5", "PubChem SID": "SID363541869", "GFP, % of control": 93.9, "viability (ATP), % of control": 88.8}
{"gene knocked down": "Pcdhga5", "PubChem SID": "SID363553461", "GFP, % of control": 49.5, "viability (ATP), % of control": 67.2}
{"gene knocked down": "Pcdhga5", "PubChem SID": "SID363566785", "GFP, % of control": 70.2, "viability (ATP), % of control": 51.9}
{"gene knocked down": "Magi2", "PubChem SID": "SID363572519", "GFP, % of control": 66.7, "viability (ATP), % of control": 71.3}
{"gene knocked down": "Magi2", "PubChem SID": "SID363577799", "GFP, % of control": 71.2, "viability (ATP), % of control": 67.9}
{"gene knocked down": "Magi2", "PubChem SID": "SID363582023", "GFP, % of control": 74.4, "viability (ATP), % of control": 93.8}
{"gene knocked down": "Ccdc177", "PubChem SID": "SID363539856", "GFP, % of control": 69.9, "viability (ATP), % of control": 77}
{"gene knocked down": "Ccdc177", "PubChem SID": "SID363561157", "GFP, % of control": 111, "viability (ATP), % of control": 60.4}
{"gene knocked down": "Ccdc177", "PubChem SID": "SID363564193", "GFP, % of control": 97.4, "viability (ATP), % of control": 84.7}
{"gene knocked down": "Slc35f2", "PubChem SID": "SID363555057", "GFP, % of control": 105, "viability (ATP), % of control": 96.1}
{"gene knocked down": "Slc35f2", "PubChem SID": "SID363568504", "GFP, % of control": 74.2, "viability (ATP), % of control": 68.6}
{"gene knocked down": "Slc35f2", "PubChem SID": "SID363586563", "GFP, % of control": 94.5, "viability (ATP), % of control": 85.4}
{"gene knocked down": "Kctd7", "PubChem SID": "SID363554034", "GFP, % of control": 86.8, "viability (ATP), % of control": 82.4}
{"gene knocked down": "Kctd7", "PubChem SID": "SID363561991", "GFP, % of control": "162 (active)", "viability (ATP), % of control": 95.1}
{"gene knocked down": "Kctd7", "PubChem SID": "SID363565729", "GFP, % of control": 35.4, "viability (ATP), % of control": 71.9}
{"gene knocked down": "9630013D21Rik", "PubChem SID": "SID363542738", "GFP, % of control": 71.8, "viability (ATP), % of control": 66.7}
{"gene knocked down": "9630013D21Rik", "PubChem SID": "SID363546255", "GFP, % of control": "218 (active)", "viability (ATP), % of control": 55.9}
{"gene knocked down": "9630013D21Rik", "PubChem SID": "SID363548011", "GFP, % of control": 76.1, "viability (ATP), % of control": 86}
{"gene knocked down": "Dhrs2", "PubChem SID": "SID363545276", "GFP, % of control": 32.8, "viability (ATP), % of control": 35.4}
{"gene knocked down": "Dhrs2", "PubChem SID": "SID363548789", "GFP, % of control": 76.9, "viability (ATP), % of control": 83}
{"gene knocked down": "Dhrs2", "PubChem SID": "SID363562595", "GFP, % of control": 114, "viability (ATP), % of control": 72}
{"gene knocked down": "Lrrc75a", "PubChem SID": "SID363546993", "GFP, % of control": 68.5, "viability (ATP), % of control": 53.1}
{"gene knocked down": "Lrrc75a", "PubChem SID": "SID363549805", "GFP, % of control": 86.1, "viability (ATP), % of control": 94.9}
{"gene knocked down": "Lrrc75a", "PubChem SID": "SID363587859", "GFP, % of control": "142 (active)", "viability (ATP), % of control": 154}
{"gene knocked down": "Mrc1", "PubChem SID": "SID363568826", "GFP, % of control": 68.5, "viability (ATP), % of control": 92.4}
{"gene knocked down": "Mrc1", "PubChem SID": "SID363576218", "GFP, % of control": 55.4, "viability (ATP), % of control": 63}
{"gene knocked down": "Mrc1", "PubChem SID": "SID363579034", "GFP, % of control": 87.9, "viability (ATP), % of control": 75}
{"gene knocked down": "Mea1", "PubChem SID": "SID363562168", "GFP, % of control": 58.1, "viability (ATP), % of control": 38.6}
{"gene knocked down": "Mea1", "PubChem SID": "SID363567306", "GFP, % of control": 107, "viability (ATP), % of control": 102}
{"gene knocked down": "Mea1", "PubChem SID": "SID363584663", "GFP, % of control": 83.1, "viability (ATP), % of control": 61}
{"gene knocked down": "Pbx1", "PubChem SID": "SID363573844", "GFP, % of control": 60.1, "viability (ATP), % of control": 64.4}
{"gene knocked down": "Pbx1", "PubChem SID": "SID363581588", "GFP, % of control": 101, "viability (ATP), % of control": 66.3}
{"gene knocked down": "Pbx1", "PubChem SID": "SID363584052", "GFP, % of control": 94.1, "viability (ATP), % of control": 107}
{"gene knocked down": "Dgkeos", "PubChem SID": "SID363542643", "GFP, % of control": 87.6, "viability (ATP), % of control": 52.7}
{"gene knocked down": "Dgkeos", "PubChem SID": "SID363546160", "GFP, % of control": "197 (active)", "viability (ATP), % of control": 28.7}
{"gene knocked down": "Dgkeos", "PubChem SID": "SID363547916", "GFP, % of control": 65.2, "viability (ATP), % of control": 53.5}

Copied from the entries so far (4 entries):
{"gene knocked down": "Pcdhga5", "PubChem SID": "SID363541869", "GFP, % of control": 93.9, "viability (ATP), % of control": 88.8}
{"gene knocked down": "Pcdhga5", "PubChem SID": "SID363553461", "GFP, % of control": 49.5, "viability (ATP), % of control": 67.2}
{"gene knocked down": "Pcdhga5", "PubChem SID": "SID363566785", "GFP, % of control": 70.2, "viability (ATP), % of control": 51.9}
{"gene knocked down": "Magi2", "PubChem SID": "SID363572519", "GFP, % of control": 66.7, "viability (ATP), % of control": 71.3}
